Results taken from EP1482987B1 (Bracco Suisse SA, dated 2014).
No constants are given. Whether binding was seen depends on the method and setting. Some binding calls cover weakened binding; strength is not graded here.

The chains behind the UniProt entries cited, without tags or fusion partners. Residues count along the entry.
UniProt P35968, residues 20-1356: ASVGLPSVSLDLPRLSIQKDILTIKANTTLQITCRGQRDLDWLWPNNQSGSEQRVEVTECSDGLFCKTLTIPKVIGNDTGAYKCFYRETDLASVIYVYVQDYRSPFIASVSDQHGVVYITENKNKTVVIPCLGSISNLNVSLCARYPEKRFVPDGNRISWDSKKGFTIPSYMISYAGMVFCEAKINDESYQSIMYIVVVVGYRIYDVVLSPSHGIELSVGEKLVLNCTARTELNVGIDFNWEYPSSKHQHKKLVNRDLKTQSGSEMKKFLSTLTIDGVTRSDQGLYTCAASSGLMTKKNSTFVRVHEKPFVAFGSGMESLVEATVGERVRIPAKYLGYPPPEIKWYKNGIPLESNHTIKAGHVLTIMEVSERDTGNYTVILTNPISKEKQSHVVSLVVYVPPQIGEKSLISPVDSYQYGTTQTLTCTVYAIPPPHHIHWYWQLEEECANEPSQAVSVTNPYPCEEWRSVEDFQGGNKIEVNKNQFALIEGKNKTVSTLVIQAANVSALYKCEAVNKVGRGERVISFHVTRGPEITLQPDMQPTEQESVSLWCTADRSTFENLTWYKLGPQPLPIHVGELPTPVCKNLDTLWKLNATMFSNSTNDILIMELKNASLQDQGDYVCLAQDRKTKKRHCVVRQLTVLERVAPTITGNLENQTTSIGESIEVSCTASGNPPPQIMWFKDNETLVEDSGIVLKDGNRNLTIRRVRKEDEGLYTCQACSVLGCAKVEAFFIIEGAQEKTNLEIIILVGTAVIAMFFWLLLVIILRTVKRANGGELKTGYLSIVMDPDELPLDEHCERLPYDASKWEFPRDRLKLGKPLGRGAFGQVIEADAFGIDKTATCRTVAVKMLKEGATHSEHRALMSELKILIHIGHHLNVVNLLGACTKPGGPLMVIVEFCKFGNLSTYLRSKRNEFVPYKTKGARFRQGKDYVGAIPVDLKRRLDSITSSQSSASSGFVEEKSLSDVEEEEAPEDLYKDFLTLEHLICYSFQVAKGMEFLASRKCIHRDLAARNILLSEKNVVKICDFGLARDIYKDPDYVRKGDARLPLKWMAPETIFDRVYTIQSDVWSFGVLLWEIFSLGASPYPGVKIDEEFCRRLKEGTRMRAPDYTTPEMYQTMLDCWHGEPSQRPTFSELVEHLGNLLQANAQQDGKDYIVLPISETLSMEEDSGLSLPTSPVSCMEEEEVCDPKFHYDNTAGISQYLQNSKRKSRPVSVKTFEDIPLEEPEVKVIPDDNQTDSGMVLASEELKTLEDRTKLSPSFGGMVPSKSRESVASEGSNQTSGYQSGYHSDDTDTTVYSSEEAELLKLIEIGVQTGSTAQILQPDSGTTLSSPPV

Biological target: KDR (full-length receptor) expressed on transiently transfected 293H cells (human) (UniProt P35968)
Test: competition with 125I-VEGF at 10, 0.3 and 0.03 µM (FIG. 14)

binding: binds
Binder: AQDWYYDEILSMADQLRHAFLSGG (Ac-; -NH2) [P13-D]
